Taken from: PubChem BioAssay AID1259314 (Drosophila RNAi Screening Center, 2017)
Here is an unselected part of about 3,100 deposited reagents. 289 of all reagents (9.3%) count as active. 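Active includes both higher and lower ATP than plate average; check the z-score sign for direction.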 Names joined by + are all predicted targets of the reagent. The record does not give: the amount of reagent.

Screen: 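Genes whose knock-down alters cell survival under toxic manganese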 (primary screen)
Cells: Drosophila S2R+ cells
Knock-down reagent: long dsRNA against Drosophila genes
Timing: 5 days (4 days knock-down, then 1 day metal exposure)
Challenge: manganese chloride added to 15 mM for 24 hours
Detection: 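Luciferase ATP signal used as a proxy for viable cell number, reported as one averaged z-score per dsRNA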
Reading the numbers: mean ATP z-score: higher = more ATP than the plate average, more viable cells under manganese
Hit rule: 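a mean ATP z-score past 1.5 in either direction is called active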
Calls: active = strong ATP change, up or down; inactive = no strong ATP change

The first 3 entries as a preview:
gene	DRSC id	mean ATP z-score	Call
Tsp42El	DRSC06186	0.999	inactive
rho	DRSC08734	1.28	inactive
rho	DRSC39615	0.354	inactive

Results, repeating the preview:
gene	DRSC id	mean ATP z-score	Call
Tsp42El	DRSC06186	0.999	inactive
rho	DRSC08734	1.28	inactive
rho	DRSC39615	0.354	inactive
Npc1a	DRSC03378	-0.461	inactive
Npc1a	DRSC39428	-0.47	inactive
Gr22a	DRSC26809	1.21	inactive
laza	DRSC23330	-0.345	inactive
laza	DRSC29129	-1.39	inactive
nAChRalpha3	DRSC18800	0.74	inactive
nAChRalpha3	DRSC25751	2.38	active
CG2061	DRSC19348	-0.479	inactive
CG2061	DRSC39511	-0.479	inactive
Dh44-R1	DRSC07172	0.654	inactive
Dh44-R1	DRSC28984	-1.24	inactive
NaCP60E	DRSC04307	-0.366	inactive
NaCP60E	DRSC26120	0.454	inactive
SppL	DRSC15228	-0.0159	inactive
OXA1L	DRSC09672	-1.14	inactive
OXA1L	DRSC29571	-1.7	active
CG33233	DRSC08239	-0.359	inactive
CG33233	DRSC39585	0.89	inactive
PIG-T	DRSC17774	0.154	inactive
PIG-T	DRSC39821	-1.12	inactive
Tsp2A	DRSC18584	-0.485	inactive
Tsp2A	DRSC39445	-0.358	inactive
CG14694	DRSC14917	-0.111	inactive
CG30339	DRSC05168	-0.388	inactive
CG32987	DRSC22373	-1.39	inactive
CG32987	DRSC28687	-0.612	inactive
CG4743	DRSC15636	-0.298	inactive
ACXA	DRSC25338	1	inactive
ACXA	DRSC39549	0.0793	inactive
Tsp68C	DRSC09295	-0.506	inactive
Tsp68C	DRSC28942	-0.206	inactive
CG13995	DRSC22767	0.38	inactive
CG13995	DRSC28023	-1.03	inactive
Osi2	DRSC12174	-0.548	inactive
Osi2	DRSC28374	3.21	active
CG43155	DRSC19777	-0.24	inactive
GlyT	DRSC04512	-0.848	inactive
GlyT	DRSC26130	0.0116	inactive
pes	DRSC03033	-0.688	inactive
pes	DRSC25954	-1.88	active
mthl7	DRSC10852	-0.363	inactive
mthl7	DRSC39583	0.745	inactive
CG3690	DRSC18170	0.836	inactive
CG3690	DRSC18641	0.444	inactive
CG2901	DRSC18239	-0.217	inactive
CG2901	DRSC39506	-0.345	inactive
CCHa1-R	DRSC06456	0.429	inactive
CCHa1-R	DRSC06715	0.74	inactive
Gr5a	DRSC18085	0.186	inactive
Lerp	DRSC14751	-0.0406	inactive
Lerp	DRSC16030	0.524	inactive
Lerp	DRSC16031	0.311	inactive
nAChRalpha5	DRSC01946	0.941	inactive
CG5646	DRSC15853	0.4	inactive
CG5646	DRSC29759	0.48	inactive
CG7309	DRSC03045	-1.19	inactive
CG7309	DRSC27252	0.259	inactive
CG8630	DRSC16441	-0.143	inactive
CG8630	DRSC24081	-0.836	inactive
CG10062	DRSC24932	1.51	active
Osi14	DRSC12368	-1.48	inactive
Osi14	DRSC26397	0.944	inactive
CG10073	DRSC05961	-1.33	inactive
Gr64d + Gr64e	DRSC28375	-1.33	inactive
Gr64d + Gr64e	DRSC39759	-0.32	inactive
Gr64d + Gr64e	DRSC39760	-0.698	inactive
CG5823	DRSC15881	-0.636	inactive
CG5823	DRSC39656	0.555	inactive
CG31103	DRSC22324	-0.566	inactive
ItgaPS4	DRSC06630	0.115	inactive
CG10019	DRSC24959	-0.0482	inactive
ppk18	DRSC02216	1.03	inactive
ppk18	DRSC02217	2.58	active
ppk18	DRSC39853	0.17	inactive
